This test deals with endogenous NaV channels of Chinese Hamster Ovary cells (Nav 1.2a) (Cricetulus griseus, UniProt A0A8C2MK62). Kind of test: Use-dependent block, repetitive electrical stimulation at 1 Hz, CHO cells. It counts as cell-based.

By UniProt entry, the sequences of proteins in these tests, tags left out.
UniProt A0A8C2MK62, entry or part of it: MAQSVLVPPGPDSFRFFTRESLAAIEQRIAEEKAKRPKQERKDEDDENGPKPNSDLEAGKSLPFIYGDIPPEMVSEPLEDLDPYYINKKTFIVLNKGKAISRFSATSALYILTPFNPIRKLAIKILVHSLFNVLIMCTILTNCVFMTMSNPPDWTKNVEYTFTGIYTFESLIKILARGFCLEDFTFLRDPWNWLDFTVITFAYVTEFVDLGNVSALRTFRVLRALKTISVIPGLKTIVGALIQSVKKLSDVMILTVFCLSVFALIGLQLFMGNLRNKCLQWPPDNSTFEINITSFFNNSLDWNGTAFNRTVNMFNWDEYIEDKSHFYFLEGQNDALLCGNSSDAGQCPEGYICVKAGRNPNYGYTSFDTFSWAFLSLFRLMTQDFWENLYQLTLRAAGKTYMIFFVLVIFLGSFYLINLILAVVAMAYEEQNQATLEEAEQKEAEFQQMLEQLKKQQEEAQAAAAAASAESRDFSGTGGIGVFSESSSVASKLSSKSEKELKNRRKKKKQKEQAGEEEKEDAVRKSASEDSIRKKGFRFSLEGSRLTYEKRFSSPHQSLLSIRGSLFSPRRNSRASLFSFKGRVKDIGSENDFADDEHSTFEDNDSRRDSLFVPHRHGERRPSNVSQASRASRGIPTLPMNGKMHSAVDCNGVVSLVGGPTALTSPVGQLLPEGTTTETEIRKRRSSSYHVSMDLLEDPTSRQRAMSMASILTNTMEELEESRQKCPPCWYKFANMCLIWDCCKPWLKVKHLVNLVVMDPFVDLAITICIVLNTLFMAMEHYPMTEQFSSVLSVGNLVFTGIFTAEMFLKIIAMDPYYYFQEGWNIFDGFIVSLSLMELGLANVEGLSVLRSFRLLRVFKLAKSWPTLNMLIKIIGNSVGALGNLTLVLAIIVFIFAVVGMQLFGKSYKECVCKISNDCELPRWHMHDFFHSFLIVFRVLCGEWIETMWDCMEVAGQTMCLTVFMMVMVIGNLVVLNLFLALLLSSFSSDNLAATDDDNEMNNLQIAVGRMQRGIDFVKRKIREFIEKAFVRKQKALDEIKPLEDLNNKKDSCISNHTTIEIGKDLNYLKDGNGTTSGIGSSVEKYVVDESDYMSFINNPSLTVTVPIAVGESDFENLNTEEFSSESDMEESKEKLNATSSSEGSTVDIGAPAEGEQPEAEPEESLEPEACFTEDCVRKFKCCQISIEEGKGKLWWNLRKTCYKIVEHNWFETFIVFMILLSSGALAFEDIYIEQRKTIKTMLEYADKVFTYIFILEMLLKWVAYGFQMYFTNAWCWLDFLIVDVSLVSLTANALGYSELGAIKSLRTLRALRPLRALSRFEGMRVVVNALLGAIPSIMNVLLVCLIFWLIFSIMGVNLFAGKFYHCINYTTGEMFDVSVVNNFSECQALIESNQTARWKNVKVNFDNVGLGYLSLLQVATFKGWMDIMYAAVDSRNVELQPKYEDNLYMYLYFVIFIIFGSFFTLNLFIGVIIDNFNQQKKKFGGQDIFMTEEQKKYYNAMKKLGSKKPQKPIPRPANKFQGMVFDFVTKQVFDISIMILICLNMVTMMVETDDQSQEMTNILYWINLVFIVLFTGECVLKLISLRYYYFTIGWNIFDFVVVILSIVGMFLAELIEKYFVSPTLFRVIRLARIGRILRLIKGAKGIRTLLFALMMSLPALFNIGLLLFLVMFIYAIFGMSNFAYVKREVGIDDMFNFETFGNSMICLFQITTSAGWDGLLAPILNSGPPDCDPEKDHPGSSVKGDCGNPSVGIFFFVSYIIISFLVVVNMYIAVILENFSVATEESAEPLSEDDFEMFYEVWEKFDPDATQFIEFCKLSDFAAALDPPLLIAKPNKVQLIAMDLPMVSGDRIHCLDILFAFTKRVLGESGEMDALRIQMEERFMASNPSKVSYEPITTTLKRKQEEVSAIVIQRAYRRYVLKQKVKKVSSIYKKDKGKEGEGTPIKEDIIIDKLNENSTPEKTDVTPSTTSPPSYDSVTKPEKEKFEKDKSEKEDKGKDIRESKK

Molecules are shown by their SMILES. Where two headings read alike, the source gives them in different places.

The IC50 is the midpoint of a concentration-inhibition curve.

For `COc1ccc(CCN2CCC(Nc3nc4ccccc4n3Cc3ccc(F)cc3)CC2)cc1` [astemizole], the 50% inhibitory concentration (IC50) is, setting by setting: (read-out: IC50 @ 1st peak) 4120 ± 2030 nM; (read-out: IC50 @ 20th peak) 1830 ± 680 nM.

(Values after patent publication US7615356B2, “Ion channel assay methods” (Vertex Pharmaceuticals (San Diego) LLC, priority 2000, dated 2009).)
